# Reference: patent US11077109B2, “Compounds having antibacterial activity and methods of use” (The Trustees of Princeton University, priority 2017, dated 2021)
# At least one compound was matched to its structure with a doubt left.
# System: Cpx envelope stress response (cpxP)
# Assay: cpxP expression (Cpx envelope stress response activation)
# Type: cell-based, E. coli MC4100 wild type
# Settings: drug at one to one-half the MIC (AGAs and chloramphenicol 5 μg/ml, triflupromazine 50 μg/ml)
# Description: Thus, that the three AGAs fell into a distinct neighborhood not similar to the other ribosome-targeting antibiotics was unsurprising.
compound,measurement,value
NC[C@H]1O[C@H](O[C@H]2[C@H](O)[C@@H](O[C@H]3O[C@H](CO)[C@@H](O)[C@H](N)[C@H]3O)[C@H](N)C[C@@H]2N)[C@H](O)[C@@H](O)[C@@H]1O [kanamycin],cpxP expression,induced cpxP expression
